Not every detail of the peptide structures is certain; ends, links or a residue may be inferred. Square brackets hold non-standard residues; d marks the D form. Peptide text beside a SMILES is read from it. PEG8 = NCCOCCOCCOCCOCCOCCOCCOCCOCCC(=O)O; 12Ado = NCCCCCCCCCCCC(=O)O
Experiment: Coating of gold nanoparticles (TEM)
Conditions: for dispersibility of coated gold nanoparticles: citrate-modified AuNP aqueous solution
Method: Colloidal gold was prepared by reducing HAuCl4 with sodium citrate. 50 mL of a 0.01% HAuCl4 (0.243 mM) aqueous solution was boiled vigorously while stirring in a round-bottom flask equipped with a reflux condenser. Then, 10 mL of a 0.1% sodium citrate aqueous solution (3.4 mM) was added to the boiling HAuCl4 solution. The color of the solution turned from yellow to deep purple and then to wine red within 3 minutes. The mixture was boiled further for 10 minutes and cooled to room temperature while continuously stirring overnight. The concentration of the colloidal gold was determined with a spectrophotometer.
It was investigated whether the gold nanoparticles (AuNP) prepared above are coated with the peptide-molecule conjugates prepared in Examples 1-3 (SAB1 to SAB3). First, the peptide-molecule conjugates of Examples 1-3 (SAB1 to SAB3) were dispersed in distilled water to prepare 20 μM aqueous solutions, respectively. After sonicating the SAB1 to SAB3 aqueous solutions (20 μM, 50 μL) for at least 5 minutes, they were immediately added to the AuNP solution (200 μL), respectively. […] After washing twice, the solution was analyzed by CD and TEM.

| Structure (SMILES) | dispersibility of coated gold nanoparticles | thickness of the self-assembled monolayer on gold nanoparticles (negative-stain TEM, ± SD) [nm] |
| --- | --- | --- |
| CC(=O)NCCOCCOCCOCCOCCOCCOCCOCCOCCC(=O)N[C@@H](C)C(=O)N[C@@H](CCC(=O)O)C(=O)N[C@@H](CC(C)C)C(=O)N[C@@H](C)C(=O)N[C@@H](C)C(=O)N[C@@H](CC(C)C)C(=O)N[C@@H](CCC(=O)O)C(=O)N[C@@H](C)C(=O)N[C@@H](CCC(=O)O)C(=O)N[C@@H](CC(C)C)C(=O)N[C@@H](C)C(=O)N[C@@H](C)C(=O)N[C@@H](CC(C)C)C(=O)N[C@@H](CCC(=O)O)C(=O)NCC(=O)NCC(=O)NCC(=O)N[C@@H](CCCCN)C(=O)NCC(=O)NCC(=O)NCC(=O)N[C@@H](CCCCN)C(=O)N[C@@H](CC(C)C)C(=O)N[C@@H](C)C(=O)N[C@@H](C)C(=O)N[C@@H](CC(C)C)C(=O)N[C@@H](CCCCN)C(=O)N[C@@H](C)C(=O)N[C@@H](CCCCN)C(=O)N[C@@H](CC(C)C)C(=O)N[C@@H](C)C(=O)N[C@@H](C)C(=O)N[C@@H](CC(C)C)C(=O)N[C@@H](CCCCN)C(=O)N[C@@H](C)C(=O)NCC(=O)NCCOCCOCCOCCOCCOCCOCCOCCOCCC(N)=O [SAB1] (Ac-[PEG8]AELAALEAELAALEGGGKGGGKLAALKAKLAALKAG[PEG8]-NH2) | precipitates were formed due to aggregation of the gold nanoparticles | – |
| CC(=O)NCCOCCOCCOCCOCCOCCOCCOCCOCCC(=O)N[C@@H](C)C(=O)N[C@@H](CCC(=O)O)C(=O)N[C@@H](CC(C)C)C(=O)N[C@@H](C)C(=O)N[C@@H](C)C(=O)N[C@@H](CC(C)C)C(=O)N[C@@H](CCC(=O)O)C(=O)N[C@@H](C)C(=O)N[C@@H](CCC(=O)O)C(=O)N[C@@H](CC(C)C)C(=O)N[C@@H](C)C(=O)N[C@@H](C)C(=O)N[C@@H](CC(C)C)C(=O)N[C@@H](CCC(=O)O)C(=O)NCCCCCCCCCCCC(=O)N[C@@H](CCCCN)C(=O)NCCCCCCCCCCCC(=O)N[C@@H](CCCCN)C(=O)N[C@@H](CC(C)C)C(=O)N[C@@H](C)C(=O)N[C@@H](C)C(=O)N[C@@H](CC(C)C)C(=O)N[C@@H](CCCCN)C(=O)N[C@@H](C)C(=O)N[C@@H](CCCCN)C(=O)N[C@@H](CC(C)C)C(=O)N[C@@H](C)C(=O)N[C@@H](C)C(=O)N[C@@H](CC(C)C)C(=O)N[C@@H](CCCCN)C(=O)N[C@@H](C)C(=O)NCC(=O)NCCOCCOCCOCCOCCOCCOCCOCCOCCC(N)=O [SAB3] (Ac-[PEG8]AELAALEAELAALE[12Ado]K[12Ado]KLAALKAKLAALKAG[PEG8]-NH2) | preferable in terms of dispersibility | 5.4±0.8 |

— patent publication US20240116986A1, “FUSION PEPTIDES CONTAINING DIMERIC ALPHA-HELICES, PEPTIDE-MOLECULARCONJUGATES CONTAINING THE SAME AND NUCLEIC ACID DELIVERY COMPOSITIONSCONTAINING THE SAME” (Artprobio Co., Ltd., priority 2022, published 2024)
